## Percent effect of library compounds

Chains of the proteins cited; added tags and fusions are not shown. Residues count along the entry.
UniProt P9WPC5, whole entry: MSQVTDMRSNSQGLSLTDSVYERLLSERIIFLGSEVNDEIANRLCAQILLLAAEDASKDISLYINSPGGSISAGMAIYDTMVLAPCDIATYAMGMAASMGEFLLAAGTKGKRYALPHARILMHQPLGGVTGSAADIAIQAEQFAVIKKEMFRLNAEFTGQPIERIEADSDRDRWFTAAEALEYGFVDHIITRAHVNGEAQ
UniProt P9WPC3, whole entry partner: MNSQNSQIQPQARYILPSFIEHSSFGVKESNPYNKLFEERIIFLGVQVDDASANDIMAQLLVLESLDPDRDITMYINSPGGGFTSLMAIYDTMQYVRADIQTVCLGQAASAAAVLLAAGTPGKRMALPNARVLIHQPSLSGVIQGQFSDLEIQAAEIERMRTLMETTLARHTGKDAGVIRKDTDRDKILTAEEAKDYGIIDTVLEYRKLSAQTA
UniProt P9WNZ1, whole entry: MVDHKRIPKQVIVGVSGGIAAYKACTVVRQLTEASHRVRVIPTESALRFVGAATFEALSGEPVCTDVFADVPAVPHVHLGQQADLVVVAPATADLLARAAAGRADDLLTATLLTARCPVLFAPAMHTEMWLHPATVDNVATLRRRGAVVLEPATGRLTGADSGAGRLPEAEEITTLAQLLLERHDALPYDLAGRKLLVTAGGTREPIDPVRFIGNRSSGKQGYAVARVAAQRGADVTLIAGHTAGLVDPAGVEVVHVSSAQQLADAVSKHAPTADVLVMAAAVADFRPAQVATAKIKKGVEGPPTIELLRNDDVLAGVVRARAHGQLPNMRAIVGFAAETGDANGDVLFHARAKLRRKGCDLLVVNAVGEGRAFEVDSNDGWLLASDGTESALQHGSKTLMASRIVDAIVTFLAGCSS
UniProt A4I591, 1-473: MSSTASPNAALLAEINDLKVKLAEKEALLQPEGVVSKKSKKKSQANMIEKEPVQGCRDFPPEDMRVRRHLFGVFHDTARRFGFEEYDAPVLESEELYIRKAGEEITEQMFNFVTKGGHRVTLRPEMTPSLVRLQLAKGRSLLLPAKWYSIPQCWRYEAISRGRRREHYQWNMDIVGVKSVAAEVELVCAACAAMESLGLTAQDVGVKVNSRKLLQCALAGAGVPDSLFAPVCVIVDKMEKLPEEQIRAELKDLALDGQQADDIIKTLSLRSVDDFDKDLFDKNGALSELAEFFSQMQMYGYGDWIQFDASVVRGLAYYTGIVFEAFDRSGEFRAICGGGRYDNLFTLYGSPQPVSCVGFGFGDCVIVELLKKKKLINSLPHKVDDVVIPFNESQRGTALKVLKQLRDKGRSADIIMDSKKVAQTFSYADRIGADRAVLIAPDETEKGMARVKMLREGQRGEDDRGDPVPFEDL

ClpP1P2: 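Protease assay of ClpP1P2, read by the AMC dye that it sets free. Target: ClpP1P2, Mycobacterium tuberculosis (UniProt P9WPC5 and UniProt P9WPC3). Compounds at 50 µM. Direction is inferred from only a few compounds that gave an IC50; most scored high, so higher reads as stronger inhibition. Most other retested compounds had strongly negative values. Of about 69,000 compounds tested this way, about 10 (0.015%) reached 50% or more in at least one test.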
CoaBC: 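Coenzyme A biosynthesis protein CoaBC, Mycobacterium tuberculosis (UniProt P9WNZ1). Enzyme assay of CoaBC with a phosphate dye (Biomol Green) read at 650 nm. Compounds at 30 µM. Higher reads as stronger inhibition, judged from the few compounds that gave an IC50. Most strong results did not repeat in a second test. Size under these conditions: about 67,000 compounds, about 40 of them at 50% or above in at least one test.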
Leishmania in macrophages: 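Cell assay of Leishmania donovani living inside macrophages; the read-out is not stated. Tested at 30 µM. The record gives no direction; compounds that gave an IC50 in retests scored well above the rest, so higher reads as stronger inhibition. About 69,000 compounds were tested under these conditions; 1.5% (about 1,000) showed 50% or more at least once.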
LiHisRS: 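Histidine-tRNA ligase, Leishmania infantum (UniProt A4I591). Enzyme assay of histidyl-tRNA synthetase; the read-out is not stated. Concentration: 30 µM. Direction is inferred from retests: higher values go with stronger inhibition. The assay is labelled LdHisRS but filed under L. infantum. Of about 69,000 compounds tested this way, about 410 (0.6%) reached 50% or more in at least one test.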

The filed quantity is “Percent Effect” (%).
The controls that fix the scale are not given in the record; negative values are as filed.
This is an unselected part of the compounds tested.
Two or more numbers in one place are separate tests of the same structure; such repeats can differ widely.
A dash means the value is not listed here; it may have been measured.

For Fc1cccnc1CN1CCCCC1c1ccn2ccnc2n1 (stereo not drawn) the result was ClpP1P2: -0.9217%; CoaBC: 3.796%; Leishmania in macrophages: 12.47%; LiHisRS: 20%.
For CNC(=O)c1ccc2c(c1)C1(CCN(CC3CC3)CC1)C(=O)N2 the result was ClpP1P2: -12.98%; CoaBC: -6.173%; LiHisRS: 13.89%.
For Cc1nn(C)c2nc(N(C)CCN(C)C)sc12 the result was ClpP1P2: -0.3146%; Leishmania in macrophages: 11.58%; LiHisRS: 1.408%.
For [H][C@]12CC[C@]([H])(CN(Cc3cscn3)C1)N(Cc1c(C)noc1C)C2=O the result was Leishmania in macrophages: 5.495%.
For CCOCC1CN(Cc2cnn(C)c2)Cc2nn(CC3CC3)cc21 (stereo not drawn) the result was ClpP1P2: -11.54%; CoaBC: 0.4202%; LiHisRS: -1.818%.
For Clc1ccccc1C1(c2ccnc(-c3ncccn3)n2)CCNCC1 the result was ClpP1P2: -0.8244%; CoaBC: -45%; Leishmania in macrophages: 15.9%; LiHisRS: 16.04%.
For O=C(CCc1ccsc1)NS(=O)(=O)Cc1ccon1 the result was ClpP1P2: -7.328%; CoaBC: 2.823%; Leishmania in macrophages: 1.249%; LiHisRS: 15.79%.
For CC(C)n1cnnc1CN(C)Cc1ccc(CO)o1 the result was ClpP1P2: -10.29%; CoaBC: -1.238%; Leishmania in macrophages: 9.832%; LiHisRS: 22%.
For CN(Cc1ccsc1)C(=O)c1nc(N2CCCCC2)ncc1Cl the result was ClpP1P2: -1.9%; CoaBC: 12.65%; Leishmania in macrophages: 60.89%; LiHisRS: 20%.
For Cc1nc(N(C)C)nc(C)c1NC(=O)c1ccccc1C(F)(F)F the result was ClpP1P2: -12.69%; CoaBC: -4.453%; Leishmania in macrophages: 10.01%; LiHisRS: 9.756%.
For CCn1nc2c(cc1=O)CN(Cc1cc(C)on1)CC2 the result was ClpP1P2: 0.2439%; CoaBC: -1.815%; Leishmania in macrophages: 1.753%; LiHisRS: 21.21%.
For CC1CCc2n[nH]c(C(=O)NCCCc3ccccn3)c2C1 (stereo not drawn) the result was ClpP1P2: 0.4712%; CoaBC: -0.3708%; Leishmania in macrophages: -2.29%; LiHisRS: -11.72%.
For CNC(=O)NCC1CCC2(CCN(C(=O)c3ccccn3)CC2)CO1.O=C(O)C(F)(F)F (stereo not drawn) the result was Leishmania in macrophages: 9.061%.
For Cn1cc(Br)cc1C(=O)NCC(C)(O)c1ccsc1 (stereo not drawn) the result was ClpP1P2: -10.02%; CoaBC: 2.233%; Leishmania in macrophages: 4.955%; LiHisRS: 17.02%.
For CCc1nccn1C1CCCN(C(=O)Cc2cn3ccsc3n2)C1 (stereo not drawn) the result was ClpP1P2: -13.86%; CoaBC: 2.413%; Leishmania in macrophages: 20.07%; LiHisRS: 3.419%.
For CN1CC2(CCN(C(=O)c3coc4c3C(=O)CCC4)C2)OC1=O (stereo not drawn) the result was ClpP1P2: 2.23%; Leishmania in macrophages: 20.7%; LiHisRS: 31.43%.
For COC(=O)c1ccc(N(C)C2CCC2)nn1 the result was ClpP1P2: -7.139%; CoaBC: 7.847%; Leishmania in macrophages: 8.351%; LiHisRS: 10.26%.
For CCNC(=O)NC(=O)C(C)Nc1ccccc1OCCOC (stereo not drawn) the result was ClpP1P2: -4.531%; CoaBC: -4.37%; Leishmania in macrophages: 21.53%; LiHisRS: 14.88%.
For c1cnc(N2CC3(CCN(C4CCOC4)CC3)c3ccccc32)nc1 (stereo not drawn) the result was ClpP1P2: -4.335%; Leishmania in macrophages: 20.41%; LiHisRS: 22.22%.
For NC(=O)Cn1ccnc1C1CCCN(CCSc2ccccc2)C1 (stereo not drawn) the result was ClpP1P2: -0.1566%; CoaBC: 2.457%; Leishmania in macrophages: -9.694%; LiHisRS: 18.25%.
For Cc1cc(NC(C)Cc2cccs2)n2nccc2n1 (stereo not drawn) the result was ClpP1P2: 7.68%; CoaBC: 7.807%; Leishmania in macrophages: 16.41%; LiHisRS: 20.41%.
For CC(C)c1ccc(OCCC(=O)N(C)CC(=O)N(C)C)cc1 the result was ClpP1P2: -2.195%; CoaBC: -4.147%; Leishmania in macrophages: 3.698%; LiHisRS: 1.667%.
For CN1CCCN(C[C@@H]2CN(C(=O)CCc3cn[nH]c3)C[C@@H]2CO)CC1 the result was ClpP1P2: -11.32%; CoaBC: -8.848%; Leishmania in macrophages: 25.57%; LiHisRS: 0%.
For COc1ccc(-c2ccoc2)cc1CNC1CCCC1 the result was ClpP1P2: 5.919%; CoaBC: -12.1%; Leishmania in macrophages: 22.93%; LiHisRS: 21.05%.
For C=Cc1cccc(CN2C[C@H]3CC[C@@H]2CN(Cc2c(C)noc2C)C3)c1 the result was ClpP1P2: -0.01308%; CoaBC: -29.09%; LiHisRS: 27.4%.
For Cc1nnn2c1COCC(CNC(=O)c1ccnnc1)C2 (stereo not drawn) the result was ClpP1P2: -11.67%; CoaBC: -2.121%; Leishmania in macrophages: -4.365%; LiHisRS: 23.29%.
For Fc1cccc(Cl)c1CN1CCC(c2n[nH]c3ncccc23)CC1 the result was ClpP1P2: -1.602%; CoaBC: 1.961%; Leishmania in macrophages: -2.47%; LiHisRS: 9.375%.
For CCCN(CC(=O)N1CCNCC1)C(=O)c1cccc(Cl)c1.O=C(O)C(F)(F)F the result was Leishmania in macrophages: -11.41% and 11.09%.
For COCC1CN(Cc2c(C)noc2C)Cc2ccnn2C1.O=C(O)C(F)(F)F.O=C(O)C(F)(F)F (stereo not drawn) the result was Leishmania in macrophages: 27.19%.

Repeated from the top, 3 entries:

| structure | ClpP1P2 | CoaBC | Leishmania in macrophages | LiHisRS |
|---|---|---|---|---|
| `Fc1cccnc1CN1CCCCC1c1ccn2ccnc2n1` (stereo not drawn) | -0.9217 | 3.796 | 12.47 | 20 |
| `CNC(=O)c1ccc2c(c1)C1(CCN(CC3CC3)CC1)C(=O)N2` | -12.98 | -6.173 | - | 13.89 |
| `Cc1nn(C)c2nc(N(C)CCN(C)C)sc12` | -0.3146 | - | 11.58 | 1.408 |

Data taken from ChEMBL document CHEMBL3988442, “University of Dundee, Small-Polar-MMV Screening Library” (2021).